Measurements taken from patent publication US10865216B2, “Tricyclic Gyrase inhibitors” (MERCK SHARP & DOHME CORP., priority 2012, dated 2020).
For at least one compound, name, drawing or mass did not settle the structure.

System: Broad Bacterial Panel
Assay: Determination of anti-bacterial efficacy (MIC), broad bacterial panel
Type: cell-based
Details: broad spectrum of bacteria

## CNc1cc(F)c(F)c2c1[nH]c1nc(Oc3cnc([C@@H](C)O)nc3)nc(N3C[C@H]4C[C@@H]3C[C@H]4N)c12 [Compound 9.1]
  antibacterial activity (in words): excellent broad-spectrum antibacterial activity
